Reference: patent US6372212B1, “Chitinase materials and methods” (ICOS Corporation, priority 1996, dated 2002)
Values after ≈ are worked out from the molar mass of the structure shown.

Tests used:
[1] = system: Aspergillus fumigatus (ATCC no. 16424); test: Broth assay; format: cell-based; settings: ATCC16424, lowest concentration inhibiting growth by at least 50%
Protocol: (§1) In additional experiments, the anti-fungal activity of recombinant human chitinase (produced in COS cells as described in Example 5A) was evaluated in an agar diffusion assay, in a broth assay according to National Committee on Clinical Laboratory Standards, and in a cell wall inhibition assay according to Selitrennikoff, Antimicrob. Agents Chemother., 23:757-765 (1983).
(§2) In the broth assay, 50 μg/ml of the sample (A: recombinant human chitinase, B: buffer control, C: control protein, D: a bacterial lysate with chitinase activity, or a known anti-fungal agent) was added with a certain concentration of the test fungal organism to RPMI 1640 media buffered with MOPS, pH 7.0. The samples were incubated at 35° C., with shaking at 120 rpm, for 48 hours, and then growth was evaluated by measuring the turbidity of the suspension. The approximate concentrations of the test fungi were as follows: 2.5×10^4 cells/ml of Candida albicans (ATCC no. 90028); 5×10^4 cells/ml of Candida albicans-polyene resistant (ATCC no. 38247); 1 x 10^4 cells/ml of Aspergillus fumigatus (ATCC no. 16424); 1×10^4 cells/ml of Neurospora crassa (ATCC no. 18889); and 1×10^4 cells/ml of Saccharomyces cerevisiae (ATCC no. 26108).

[2] = system: Candida albicans-polyene resistant (ATCC no. 38247); test: Broth assay; format: cell-based; settings: lowest concentration inhibiting growth by at least 50%
Protocol: as §1, §2

IC50 [1]: 0.5 µg/mL (≈ 1.2 µM) | IC50 [2]: 2 μg/ml (growth is 50% of control)
SMILES: Clc1ccc(COC(Cn2ccnc2)c2ccc(Cl)cc2Cl)c(Cl)c1 (centres unmarked) [miconazole]
